Data on four molecules can be found in paper PMC3652797.

Sequences of proteins named here, by UniProt entry; tags and fusion partners are left off. A change or cut given only in a name is not applied to a line headed by its entry. Residues count along the entry.
UniProt Q03391: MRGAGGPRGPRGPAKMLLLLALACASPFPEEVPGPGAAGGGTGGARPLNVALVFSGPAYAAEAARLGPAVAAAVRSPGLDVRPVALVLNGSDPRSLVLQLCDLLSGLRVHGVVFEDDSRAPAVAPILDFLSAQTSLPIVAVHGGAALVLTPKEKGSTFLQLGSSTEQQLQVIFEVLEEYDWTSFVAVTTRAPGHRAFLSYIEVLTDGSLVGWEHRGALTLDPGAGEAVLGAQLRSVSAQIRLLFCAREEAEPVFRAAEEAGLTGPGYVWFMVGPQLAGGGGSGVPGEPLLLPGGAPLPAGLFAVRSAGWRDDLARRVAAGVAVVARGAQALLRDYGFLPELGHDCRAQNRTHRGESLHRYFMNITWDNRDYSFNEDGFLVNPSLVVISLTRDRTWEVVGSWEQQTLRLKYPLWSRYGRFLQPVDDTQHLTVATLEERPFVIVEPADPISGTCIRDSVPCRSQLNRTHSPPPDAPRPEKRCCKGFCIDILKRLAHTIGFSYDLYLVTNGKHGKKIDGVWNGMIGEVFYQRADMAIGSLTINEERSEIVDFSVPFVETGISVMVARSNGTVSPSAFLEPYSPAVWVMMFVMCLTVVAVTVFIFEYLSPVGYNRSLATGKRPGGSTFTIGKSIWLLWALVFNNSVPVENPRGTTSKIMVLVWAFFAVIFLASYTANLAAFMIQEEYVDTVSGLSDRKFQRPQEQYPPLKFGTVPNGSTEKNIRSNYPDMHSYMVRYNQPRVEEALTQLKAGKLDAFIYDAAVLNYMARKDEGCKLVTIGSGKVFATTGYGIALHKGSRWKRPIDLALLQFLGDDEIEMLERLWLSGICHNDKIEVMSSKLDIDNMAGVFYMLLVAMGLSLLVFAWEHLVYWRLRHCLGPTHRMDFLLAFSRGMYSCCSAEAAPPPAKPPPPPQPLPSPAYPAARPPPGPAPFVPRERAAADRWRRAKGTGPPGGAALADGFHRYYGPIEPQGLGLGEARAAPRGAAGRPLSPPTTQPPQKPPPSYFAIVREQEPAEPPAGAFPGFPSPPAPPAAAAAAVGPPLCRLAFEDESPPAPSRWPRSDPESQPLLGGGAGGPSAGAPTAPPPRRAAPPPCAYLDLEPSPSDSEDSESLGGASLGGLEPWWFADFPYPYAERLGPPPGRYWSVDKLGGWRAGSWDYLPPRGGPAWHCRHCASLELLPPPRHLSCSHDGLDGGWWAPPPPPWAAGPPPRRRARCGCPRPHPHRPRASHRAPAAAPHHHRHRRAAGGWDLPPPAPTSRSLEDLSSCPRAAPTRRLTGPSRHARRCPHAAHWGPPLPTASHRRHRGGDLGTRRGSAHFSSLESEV
NR2D subunit of the NMDA receptor, endogenous in mouse embryonic brain (mouse (endogenous in embryonic day 18 brain)): residues 28-1323 of Q03391

Assay [1] concerns the target Dedicator of cytokinesis 3 (Dock3), endogenous in mouse embryonic brain (mouse (endogenous in embryonic day 18 brain)) (UniProt Q8CIQ7). Nature of the assay: co-IP; endogenous proteins, mouse embryonic day 18 brain homogenate (300 mM NaCl, 5 mM Tris-Cl pH 7.5, 0.5% Triton X-100); anti-NR2D or anti-Dock3 antibody, protein G Sepharose, 4°C; NR2D-/- brain as control.
Assay [2] concerns the target T1, Myc-tagged Dock3 interaction domain (amino acids 796-1154) (mouse) (UniProt Q8CIQ7).
T1 sequence: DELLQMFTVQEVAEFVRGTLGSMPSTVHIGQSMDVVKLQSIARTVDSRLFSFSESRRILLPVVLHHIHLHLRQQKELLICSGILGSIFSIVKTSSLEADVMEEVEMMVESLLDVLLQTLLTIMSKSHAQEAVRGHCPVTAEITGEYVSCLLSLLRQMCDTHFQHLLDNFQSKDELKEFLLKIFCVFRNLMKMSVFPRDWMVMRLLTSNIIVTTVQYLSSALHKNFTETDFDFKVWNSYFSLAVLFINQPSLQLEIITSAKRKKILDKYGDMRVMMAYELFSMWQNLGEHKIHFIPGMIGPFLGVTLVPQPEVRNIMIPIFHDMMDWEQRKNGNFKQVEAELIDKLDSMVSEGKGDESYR
Nature of the assay: co-IP; HEK293T cells co-transfected with Myc-Dock3 SID and EGFP-NR2D CT; lysates (1% NP-40, 0.5% Na-deoxycholate, 150 mM NaCl) precipitated with anti-GFP or anti-Myc magnetic beads; blots with anti-Myc or anti-GFP.

Assay [3] addresses NR2D subunit of the NMDA receptor, endogenous in mouse embryonic brain (mouse (endogenous in embryonic day 18 brain)) (UniProt Q03391). The assay is described as follows: co-IP; endogenous proteins, mouse embryonic day 18 brain homogenate (300 mM NaCl, 5 mM Tris-Cl pH 7.5, 0.5% Triton X-100); anti-NR2D or anti-Dock3 antibody, protein G Sepharose, 4°C; NR2D-/- brain as control.
Assay [4] has as its target EGFP-tagged NR2D C-terminus (amino acids 895-1323) (mouse) (UniProt Q03391). Nature of the assay: co-IP; HEK293T cells co-transfected with Myc-Dock3 SID and EGFP-NR2D CT; lysates (1% NP-40, 0.5% Na-deoxycholate, 150 mM NaCl) precipitated with anti-GFP or anti-Myc magnetic beads; blots with anti-Myc or anti-GFP.

No constants are given. Whether binding was seen depends on the method and setting. In cells and extracts the contact can be indirect. Some binding calls cover weakened binding; strength is not graded here. For some of these results: Tags and fused reporters may be left off the sequences shown.

“NR2D subunit of the NMDA receptor, endogenous in mouse embryonic brain (from UniProt Q03391 28-1323)”: the binding result in assay [1] was “binds”. Turning to “EGFP-tagged NR2D C-terminus (amino acids 895-1323) (from UniProt Q03391 895-1323) (domain or fragment)”, the binding result in assay [2] is recorded as “binds”. For the molecule “Dedicator of cytokinesis 3 (Dock3), endogenous in mouse embryonic brain (from UniProt Q8CIQ7 1-2027)”, the binding entry in assay [3] is on record as “binds”.

B1: Myc-tagged Dock3 interaction domain (amino acids 796-1154) (domain or fragment, UniProt Q8CIQ7 796-1154)
chain: DELLQMFTVQEVAEFVRGTLGSMPSTVHIGQSMDVVKLQSIARTVDSRLFSFSESRRILLPVVLHHIHLHLRQQKELLICSGILGSIFSIVKTSSLEADVMEEVEMMVESLLDVLLQTLLTIMSKSHAQEAVRGHCPVTAEITGEYVSCLLSLLRQMCDTHFQHLLDNFQSKDELKEFLLKIFCVFRNLMKMSVFPRDWMVMRLLTSNIIVTTVQYLSSALHKNFTETDFDFKVWNSYFSLAVLFINQPSLQLEIITSAKRKKILDKYGDMRVMMAYELFSMWQNLGEHKIHFIPGMIGPFLGVTLVPQPEVRNIMIPIFHDMMDWEQRKNGNFKQVEAELIDKLDSMVSEGKGDESYR
In the case of B1, the binding entry in assay [4] is “binds”.
